Assay results published in article PMC10163288.
The list shows a part of the results.

B1: il2ra_site1_2b5i_sap_11_mot_HHH_b1_06833_000000178_0001_1_19_H_._HHH_b1_07977_0001_0000700012_0000001_0_0001_af2pred_dldesign_0_af2pred (protein)
chain: SSSSSSAAKEARRLFLEANRLFQAGKEEEAKEALEKALELAKKAKANSLLRLVENALKLLSSSSS
B2: il2ra_site1_3nfp_normal_mot_7cbdf275c6f204f9d60ac8802deb44b6_0001_1_000000034_0001_19_33_H_._HHH_b1_00879_0001_0000300012_0000001_0 (protein)
chain: SSSSTADEFLEELVKEAFEEGDRLQLRALIKLLEHALKALGDPTAKELLEEAQELLERLRSSSSS
B3: il2ra_site2_2erj_sap_16_mot_HHH_b2_05639_000000107_0001_40_54_H_._HHH_b1_02005_0001_0000100002_0000001_0_0001_af2pred_0001_af2pred (protein)
chain: SSSSDERELAELLARISRAAAEGDEEEVRELVEELRKLAEELNDEEAERAVEVLEEHLRGSSSSS
B4: il2ra_site2_2erj_normal_mot_HHH_b1_02466_000000018_0001_22_38_H_._HHH_b1_07558_0001_0000100002_0000001_0 (protein)
chain: SSSSSEVEQLAEAVLEVAEANNDEELVRRLEELLEQLEEEGDHRYAWEMLELLLELRERLSSSSS
B5: il2ra_site1_3nfp_sap_16_mot_HHH_b1_04049_af2_000000244_0001_42_55_H_._HHH_b2_06744_0001_0000100003_0000001_0_0001_af2pred_0001_af2pred_swapped (protein)
chain: SLEERIEEILKKYLPPVEVRVLIRMVKEVVEKHNIPPEEAIKLLIEAMRRNDERLAEILEEALEE
B6: il2ra_site2_2erj_sap_24_mot_720936397f2d31669eff21710c18a4fc_0001_000000071_0001_37_51_H_._HHH_b2_07963_af2_0001_0000200006_0000001_0_0001 (protein)
chain: SSSSDEEERVIELLAQAVELANNGNPEEARKAIEEAEEIARELGDEFLERYIEFALRDIESSSSS
B7: il2ra_site1_2b5i_sap_13_mot_HHH_b1_06900_af2_000000048_0001_21_36_H_._d91d1db0bf1296298019f2f5d1450a22_0001_1_0001_0000300013_0000001_0_0001_af2pred_dldesign_0_ … (protein)
chain: SSSSSDKRKFASDLVDELTEKYGLDAEQENALIRLATELIWQGLSPEEIRERLEALAERLSSSSS
B8: il2ra_site2_2erj_sap_31_mot_13e88f01115c899cb62c0719bb565eb2_0001_000000092_0001_36_50_H_._a6dc95095f26d3d149f38d2607f81e7c_0001_0001_0000900026_0000001_0_0001_ … (protein)
chain: SSSSDEEELERLLREIEEAVERGDEELYARLVRELFRLIRELGDEEAASLLIRLAEEFAEGSSSS
B9: il2ra_site1_1z92_normal_mot_1581cc1c700002558836ca695aafbf97_0001_1_af2_000000099_0001_17_32_H_._393f259bee1ff5c7c1c94a75254b9d8d_0001_0001_0000300037_0000001_1 (protein)
chain: DVERFIEFLERKGRVSPEQIAKSLAAFVRLAERKSPEAAEAFERDLEELSKTDPIAELALELLRR
B10: il2ra_site2_3nfp_normal_mot_HHH_b1_02297_000000279_0001_41_58_H_._HHH_b2_01197_0001_0000500018_0000001_0 (protein)
chain: SSSSDEEEYERRVEELLEEAEKISDEREVERLLSEAALLAYEARDFELFALVNEVLARLVSSSSS
B11: il2ra_site2_2erj_normal_mot_HHH_b2_03093_af2_000000119_0001_18_34_H_._HHH_b1_06904_af2_0001_0000100005_0000001_0 (protein)
chain: SSSSSEEEARELIEEAKELIENGNPEKAWEVLRRAAEIAWREGNFELFSEIAELLHELARSSSSS
B12: il2ra_site2_2erj_normal_mot_HHH_b2_03093_af2_000000119_0001_18_34_H_._HHH_b2_06007_af2_0001_0000300012_0000001_0 (protein)
chain: SSSSSEEEEVEKLLKEVEELQKEGDEEKAEEVLRRAAELAWRINNFELFSEIAELLRKLGSSSSS
B13: il2ra_site1_1z92_normal_mot_74bb627b62bb877a56547cee6c7a6e54_0001_000000029_0001_1_13_H_._HHH_b1_02999_0001_0000400041_0000001_0 (protein)
chain: SSSSNEEYQLAVEIVSRLAAEFGLDWEQLKELDRLAAELVARGYSPEEIEEILEELAERLSSSSS
B14: il2ra_site1_3nfp_sap_11_mot_HHH_b1_07180_af2_000000260_0001_1_19_H_._HHH_b2_01685_af2_0001_0000200004_0000001_0_0001_af2pred_0001_af2pred (protein)
chain: SSSTSEEEARRMRELMELIRELSKRGDREVAKELFKLLAEALRKGDPEILEEALELARRRLSSSS
B15: il2ra_site1_3nfp_normal_mot_0eddeacbb14b769e73e254714f31e2f9_0001_af2_000000052_0001_37_51_H_._HHH_b2_01980_0001_0000100001_0000001_0 (protein)
chain: SSSSSSDEEEVERLLEEAKHIPDPREAAKLLHEAFRVAAETKNAELADLIYEVMREIISSSSSSS
B16: il2ra_site2_3nfp_sap_18_mot_HHH_b1_05606_000000030_0001_23_39_H_._f72021f8cb70fb76a13a12d6924f0047_0001_0001_0000200014_0000001_0_0001 (protein)
chain: SSSSDEEHFIEQLLAQAKFLVERLEDPEERERLEELIEELEREGDPRIAEELARLVSEIISSSSS
B17: il2ra_site1_2b5i_normal_mot_HHH_b1_02271_000000068_0001_1_16_H_._HHH_b1_04984_af2_0001_0000400034_0000001_0_af2pred_dldesign_0_af2pred (protein)
chain: SSSSSDPEAEVAALVARARALKAAGRVREALELLDEAAKLLDENDMEEKLAEVEALAKSLSSSSS
B18: il2ra_site2_3nfp_sap_19_mot_HHH_b1_06589_000000230_0001_37_50_H_._HHH_b1_05602_af2_0001_0000400008_0000001_0_0001 (protein)
chain: SSSSSDFKFEVAVEYAKAAIKLRNDPELLREVEELEEEYKEEGDPRYLEEILRIAAEMAHSSSSS
B19: il2ra_site1_1z92_sap_25_mot_HHH_b2_05274_af2_000000237_0001_23_40_H_._1ea7efed693413ff70a20a74b84a9d1c_0001_1_0001_0000200019_0000001_0_0001 (protein)
chain: DEEDEEEAEELAGGDPELEALILDALRTLKLGIPPKAIEIVLEDAAKRDGIPPEKVEEALRLAEP
B20: il2ra_site2_2erj_normal_mot_c2bf78bdce995293a161f7082e24b401_0001_af2_000000082_0001_17_32_H_._HHH_b1_07967_0001_0000400009_0000001_0 (protein)
chain: SSSSDWLERLYRLANELLHASHNRDEEEFEEVYEEIRRLVEESQSEAAREILELIQEEFEGSSSS
B21: il2ra_site2_2erj_normal_mot_HHH_b1_04373_af2_000000118_0001_18_33_H_._HHH_b2_02528_af2_0001_0000400022_0000001_0 (protein)
chain: SSSSSEEEERVRELLEEARELHEEGNLEEVYRLAVEALRIASENNDQELIELVAKVVRELSSSSS
B22: il2ra_site2_3nfp_sap_22_mot_HHH_b2_08245_000000023_0001_41_55_H_._HHH_b2_07283_0001_0000300027_0000001_0_0001 (protein)
chain: SSSSDVEERIEELLKEIEELLEKGDPEEAERLLLEVALLAWETGDFEAFAAVTRLLERVQSSSSS
B23: il2ra_site1_2b5i_normal_mot_HHH_b1_08075_000000186_0001_43_57_H_._HHH_b2_05789_0001_0000400011_0000001_0 (protein)
chain: SSSSSSRSELTKEALELLRKAQKIEDEEEVRELLEEALELAREGNTRSLVIMLETALEALSSSSS
B24: il2ra_site2_2erj_normal_mot_HHH_b2_00484_af2_000000139_0001_42_55_H_._HHH_b1_05539_af2_0001_0000300014_0000001_1 (protein)
chain: SSSSSEIELAAEASARAIELFLNGNPEEAERLLEEVLEELQELNNETAVRYVEHALRHIRESSSS

These binders were tested against il2ra, P01589 (assay: yeast display titration).

Apparent Kd, inactive:
B1 no binding seen
B2 no binding seen
B3 no binding seen
B4 no binding seen
B5 no binding seen
B6 no binding seen
B7 no binding seen
B8 no binding seen
B9 no binding seen
B10 no binding seen
B11 no binding seen
B12 no binding seen
B13 no binding seen
B14 no binding seen
B15 no binding seen
B16 no binding seen
B17 no binding seen
B18 no binding seen
B19 no binding seen
B20 no binding seen
B21 no binding seen
B22 no binding seen
B23 no binding seen
B24 no binding seen

No new results follow: an excerpt of the list.
Apparent Kd, inactive:
B17 no binding seen
B18 no binding seen
B19 no binding seen
B20 no binding seen
B21 no binding seen
B22 no binding seen
